The filed quantity is “Percent Effect” (%). How 0% and 100% were set is not recorded. Most values in the screen are low, and negative values occur. The compounds are a random part of those screened.

The chains behind the UniProt entries cited, without tags or fusion partners. Residues count along the entry.
UniProt Q4DA54, 1-478: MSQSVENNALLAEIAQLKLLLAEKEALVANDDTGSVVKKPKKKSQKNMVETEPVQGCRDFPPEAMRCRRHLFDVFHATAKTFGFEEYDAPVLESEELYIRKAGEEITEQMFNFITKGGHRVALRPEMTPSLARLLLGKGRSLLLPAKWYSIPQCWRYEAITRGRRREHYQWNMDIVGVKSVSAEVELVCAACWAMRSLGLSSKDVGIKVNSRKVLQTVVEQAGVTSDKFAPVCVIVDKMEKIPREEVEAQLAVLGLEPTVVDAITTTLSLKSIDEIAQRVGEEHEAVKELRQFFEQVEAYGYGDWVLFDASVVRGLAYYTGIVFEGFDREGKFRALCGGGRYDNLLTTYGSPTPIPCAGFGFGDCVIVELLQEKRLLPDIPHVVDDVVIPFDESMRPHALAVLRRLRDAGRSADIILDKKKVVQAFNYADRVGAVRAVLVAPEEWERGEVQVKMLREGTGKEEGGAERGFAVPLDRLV
UniProt P9WNZ1, whole entry: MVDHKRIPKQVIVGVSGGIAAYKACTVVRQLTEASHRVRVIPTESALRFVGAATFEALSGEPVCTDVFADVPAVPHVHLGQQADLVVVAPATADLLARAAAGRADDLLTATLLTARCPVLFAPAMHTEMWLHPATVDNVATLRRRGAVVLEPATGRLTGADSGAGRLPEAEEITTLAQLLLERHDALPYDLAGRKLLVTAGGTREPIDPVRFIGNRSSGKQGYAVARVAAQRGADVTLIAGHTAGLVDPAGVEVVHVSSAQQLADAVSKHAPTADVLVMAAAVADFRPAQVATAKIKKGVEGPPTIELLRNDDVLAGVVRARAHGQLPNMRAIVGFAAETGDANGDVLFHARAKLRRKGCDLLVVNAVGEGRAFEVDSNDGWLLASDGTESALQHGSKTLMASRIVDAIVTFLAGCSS

TcHisRS: 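Enzyme assay of histidyl-tRNA synthetase; the read-out is not stated. Target: Histidine-tRNA ligase, Trypanosoma cruzi CL Brener (UniProt Q4DA54). Compounds at 30 µM. The record gives no direction; compounds that gave an IC50 in retests scored well above the rest, so higher reads as stronger inhibition. About 69,000 compounds were tested under these conditions; 0.045% (about 31) showed 50% or more at least once.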
CoaBC: 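Enzyme assay of CoaBC with a phosphate dye (Biomol Green) read at 650 nm. Target: Coenzyme A biosynthesis protein CoaBC, Mycobacterium tuberculosis (UniProt P9WNZ1). Concentration: 30 µM. Higher reads as stronger inhibition, judged from the few compounds that gave an IC50. Most strong results did not repeat in a second test. Of about 67,000 compounds tested this way, about 40 (0.06%) reached 50% or more in at least one test.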

{"smiles": "CCCc1cc(CN(C)C2CC(C)(C)NC(C)(C)C2)n[nH]1", "TcHisRS": -1.961, "CoaBC": 1.22}
{"smiles": "COC[C@]1(O)CCN(Cc2cnc(N3CCOCC3)nc2)CC1(C)C", "TcHisRS": 4.878, "CoaBC": 3.924}
{"smiles": "O=C1NC2(Cc3ccccc31)CN(CC1CCNC1)C2", "stereo": "stereo not shown", "TcHisRS": 0.5917, "CoaBC": 2.895}
{"smiles": "CCOC(=O)CN1CCC2(CC1)CC(=O)c1ccc(OC)cc1O2", "TcHisRS": 1.504, "CoaBC": 4.353}
{"smiles": "c1ccc(C2CCCN(c3ncnc4c3CCNC4)CC2)cc1", "stereo": "stereo not shown", "TcHisRS": 13.33, "CoaBC": 4.822}
{"smiles": "Cc1nccnc1N1CC[C@@H](NC(=O)c2cnccn2)[C@H](O)C1", "TcHisRS": 0.8333, "CoaBC": 5.33}
{"smiles": "O=S(=O)(CCOc1ccc(F)cc1)Nc1cnn(CC(F)F)c1", "TcHisRS": 7.216, "CoaBC": 3.132}
{"smiles": "CC(C)n1c(C2CCCN(CCS(C)(=O)=O)C2)nc2ccccc21", "stereo": "stereo not shown", "TcHisRS": -56.15, "CoaBC": 1.449}
{"smiles": "CCCc1noc(CCC(=O)N2CCCC2c2ccsc2)n1", "stereo": "stereo not shown", "TcHisRS": 0.7519, "CoaBC": -2.571}
{"smiles": "O=C(c1cnccn1)N1CCc2onc(CN3CCCC3)c2C1", "TcHisRS": -0.5348, "CoaBC": 5}
{"smiles": "O=S(=O)(CC1CCCCO1)Nc1cnn(CC(F)F)c1", "stereo": "stereo not shown", "TcHisRS": 15, "CoaBC": -7.004}
{"smiles": "COc1ncccc1C(=O)N1CC(c2nc(-c3ccccn3)no2)C1", "TcHisRS": 0.4878, "CoaBC": -1.129}
{"smiles": "CC(=O)NCC1CCN(c2cc(C)nc(-c3ccncc3)n2)CC1", "TcHisRS": 15.1, "CoaBC": -4.558}
{"smiles": "COCCc1nc(CSc2ccncc2)n(C)n1", "TcHisRS": 6.383, "CoaBC": -1.606}
{"smiles": "Cc1nc2n(n1)CC(NCC(=O)NCC1(c3ccccc3)CC1)CC2", "stereo": "stereo not shown", "TcHisRS": 6.557, "CoaBC": 2.2}
{"smiles": "O=C(Cn1nc2ccccc2n1)N1CCCC(O)(CO)C1", "stereo": "stereo not shown", "TcHisRS": 8.642, "CoaBC": 9.693}
{"smiles": "O=C(c1ccno1)N1CCn2cc(CN3CCCCC3)nc2C1", "TcHisRS": 4.902, "CoaBC": 4.5}
{"smiles": "COc1cccc(CN2CCCCC2c2n[nH]cc2-c2cc(C)no2)c1", "stereo": "stereo not shown", "TcHisRS": 10.34, "CoaBC": -4.126}
{"smiles": "O=C(CNc1ccccc1S(=O)(=O)C(F)F)NCc1ccco1", "TcHisRS": 6.897, "CoaBC": 0.4}
{"smiles": "Cc1nc(COC[C@@H]2CC[C@H]3[C@H](CCN3S(C)(=O)=O)O2)cs1", "TcHisRS": 3.867, "CoaBC": 7.455}
{"smiles": "CCN1CCc2[nH]cnc2C12CCN(c1ncc(C(=O)O)cc1Cl)CC2", "TcHisRS": 2.762, "CoaBC": 0.9153}
{"smiles": "Cn1c(CN2CCCC2)nnc1C1CCCN(C(=O)N2CCOCC2)C1", "stereo": "stereo not shown", "TcHisRS": -6.122, "CoaBC": 1.984}
{"smiles": "Cc1cc(C)c2c(N(C)CC3COCCO3)ncnc2n1", "stereo": "stereo not shown", "TcHisRS": -1.093, "CoaBC": 14.16}
{"smiles": "COC(=O)CNc1cc(C(=O)NCC(F)(F)F)cc(F)c1C", "TcHisRS": 3.191, "CoaBC": -2.386}
{"smiles": "Cc1nn(C)cc1-c1ccnc(NCCN)n1", "TcHisRS": -1.02, "CoaBC": 1.984}
{"smiles": "CC(C)NC(=O)c1ccc2c(c1)C(c1nc[nH]n1)CN2S(C)(=O)=O", "stereo": "stereo not shown", "TcHisRS": 3.226, "CoaBC": 0.9662}
{"smiles": "Cc1ccc(CN2CCC(n3cc(C(O)c4ccccc4)nn3)CC2)o1", "stereo": "stereo not shown", "TcHisRS": 2.051, "CoaBC": 8.726}
{"smiles": "CC(SCCC(=O)NC(N)=O)c1ccc(F)cc1F", "stereo": "stereo not shown", "TcHisRS": 0, "CoaBC": 2.764}
{"smiles": "Cn1ccc(CN2CCC(Cc3ccccc3)CC2)cc1=O", "TcHisRS": 3.134, "CoaBC": -6.971}
{"smiles": "CNC(=O)c1nc2c(s1)CCN(C(=O)c1ccccc1)CC2", "TcHisRS": 5.882, "CoaBC": 1.954}
{"smiles": "Fc1ccc(CNc2ccccc2Cn2cncn2)cc1", "TcHisRS": 2.521, "CoaBC": 1.21}
{"smiles": "Cc1cc(-c2nn3c(C4CC4)nnc3s2)on1", "TcHisRS": 9, "CoaBC": 1.937}
{"smiles": "CC(=O)N1CCCN(S(=O)(=O)c2cc3ccccc3o2)CC1", "TcHisRS": -2.463, "CoaBC": 2.532}
{"smiles": "O=C(Cc1ccc(Br)s1)NCC(=O)Nc1cn[nH]c1", "TcHisRS": 18.97, "CoaBC": -6.746}
{"smiles": "COCCCN(C)[C@@H]1c2ccccc2C2(CCNCC2)[C@H]1O", "TcHisRS": 1.667, "CoaBC": -25.05}
{"smiles": "O=C(NCc1nncn1-c1ccccc1)C1CC1", "TcHisRS": 4.942, "CoaBC": 0.1164}
{"smiles": "O=c1cc(N2CCCCC2)cnn1C[C@H](O)CO", "TcHisRS": 11.11, "CoaBC": -2.357}
{"smiles": "O=C(Cc1csc(-c2nnc[nH]2)n1)N1CCCC1Cn1cccn1", "stereo": "stereo not shown", "TcHisRS": 1.887, "CoaBC": -1.434}
{"smiles": "Cc1nn(CCO)cc1CN1CCC(C(C)N2CCCC2)CC1", "stereo": "stereo not shown", "TcHisRS": 2.463, "CoaBC": -13.55}
{"smiles": "CCSCc1nc(O)c2nnn(C3CCN(Cc4ccco4)CC3)c2n1", "TcHisRS": 2.682, "CoaBC": 5.981}
{"smiles": "Cc1nc(C)n(CC2CCCCN2CCOc2cccc(C#N)c2)n1", "stereo": "stereo not shown", "TcHisRS": 6.857, "CoaBC": 4.462}
{"smiles": "O=C(CC1OCCc2ccccc21)NCC1(O)CCCCC1", "stereo": "stereo not shown", "TcHisRS": 2.128, "CoaBC": -5.221}
{"smiles": "O=C(NC1CC(=O)N(C2Cc3ccccc3C2)C1)c1ccoc1", "stereo": "stereo not shown", "TcHisRS": 9.091, "CoaBC": 1.071}
{"smiles": "CC(C)N(Cc1c[nH]nc1-c1ccc2c(c1)OCO2)Cc1nccn1C", "TcHisRS": 0.6369}
{"smiles": "COc1ccc2[nH]c3c(N(C)CC4OCCO4)ncnc3c2c1", "TcHisRS": -2.591, "CoaBC": 15.89}
{"smiles": "Cc1cc2nc(SCC(=O)N3CCCC3)n(-c3ccccc3)c(=O)c2[nH]1", "TcHisRS": 1.087, "CoaBC": -0.6748}
{"smiles": "CC(C)CNC(=O)N1CC[C@@H]2CN(Cc3cccnc3)S(=O)(=O)[C@@H]2CC1", "TcHisRS": 3.175, "CoaBC": 2.469}
{"smiles": "O=C(NCCc1ccn(-c2ccccc2)n1)N1CCCC(CO)C1", "stereo": "stereo not shown", "TcHisRS": 6.122, "CoaBC": 4.439}

Some entries from above, unchanged:

- c1ccc(C2CCCN(c3ncnc4c3CCNC4)CC2)cc1 (stereo not shown) : TcHisRS: 13.33%; CoaBC: 4.822%
- Cc1nn(CCO)cc1CN1CCC(C(C)N2CCCC2)CC1 (stereo not shown) : TcHisRS: 2.463%; CoaBC: -13.55%
- O=C(Cn1nc2ccccc2n1)N1CCCC(O)(CO)C1 (stereo not shown) : TcHisRS: 8.642%; CoaBC: 9.693%

The values are deposited in ChEMBL (CHEMBL3988442, “University of Dundee, Small-Polar-MMV Screening Library” (2021)).